# Reference: PubChem BioAssay AID1224828 (NIAID, 2016)
# Screen: 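Find genes required for NF-kappaB p65 moving into the nucleus after LPS in mouse macrophages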 (primary screen)
# Cells: mouse RAW264.7 G9 macrophage reporter cells (GFP-p65, Tnf promoter-mCherry)
# Reagent: siRNA pool against mouse genes, 100 nM
# Duration: 2 days siRNA transfection, then 40 min LPS before fixation
# Challenge: LPS (Salmonella minnesota R595) at 10 ng/ml
# Measured: 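Microscopy ratio of nuclear to perinuclear-ring GFP-p65 signal, scaled to the plate median; gene score is the average of two replicate robust z-scores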
# Direction: p65 translocation robust z-score: higher = more nuclear NF-kappaB p65 after LPS than the plate median; nuclear/cytoplasmic p65 ratio: higher = more nuclear NF-kappaB p65
# Rule for the call: 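Active if robust z is above 3.3 (negative regulators) or below -1.56, the Tlr4 control median (positive regulators); activity score 50 or more; control wells not called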
# Meaning of the calls: active = hit (p65 shift raised or lowered); inactive = no clear change
# In all, the deposit lists about 17,000 reagents; below is an unselected part. In the full data, 762 (4.5%) are marked active. 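Active calls include both raised and lowered p65 entry, mostly lowered; wells with fewer than 50 cells lack a z-score.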 Raw values are not corrected between plates. A number with no mark means an inactive call. Reagents against one gene are numbered here.
gene,pool no.,p65 translocation robust z-score,"nuclear/cytoplasmic p65 ratio, rep 1","nuclear/cytoplasmic p65 ratio, rep 2",low cell count flag
St7,1,-0.23,1.39,1.14,enough cells to score
Park7,1,-0.63,1.38,1.31,enough cells to score
Klk1b16,1,1.32,1.69,1.65,enough cells to score
Phospho2,1,-1.69 (active),1.22,1.2,enough cells to score
Chn2,1,-0.5,1.55,1.66,enough cells to score
Slc38a1,1,,0.966,1.07,fewer than 50 cells per well; well left out of scoring
Cyp2c38,1,-0.76,1.44,1.69,enough cells to score
Chrnb2,1,-0.44,1.46,1.32,enough cells to score
Scg5,1,-0.03,1.53,1.56,enough cells to score
Galnt17,1,1.57,1.6,1.45,enough cells to score
Xpo7,1,0.07,1.36,1.26,enough cells to score
Xpo7,2,,1.01,1.03,fewer than 50 cells per well; well left out of scoring
Dock1,1,-1.24,1.25,1.27,enough cells to score
Zfyve21,1,-1.01,1.25,1.16,enough cells to score
Ndufb5,1,-1.96 (active),1.59,1.19,enough cells to score
D930048N14Rik,1,4.67 (active),2.22,1.62,enough cells to score
Sec14l1,1,0.72,1.7,1.61,enough cells to score
Myo5a,1,-0.64,1.35,1.27,enough cells to score
Mcpt2,1,-0.07,1.77,1.48,enough cells to score
4930451E10Rik,1,,1.02,1.09,fewer than 50 cells per well; well left out of scoring
Cc2d2a,1,-0.08,1.3,1.5,enough cells to score
Or2ah1,1,1.91,1.85,1.95,enough cells to score
Apcs,1,0.9,1.69,1.81,enough cells to score
Harbi1,1,-0.77,1.47,1.43,enough cells to score
